Measured values from paper PMC6231649.
Results are given in words; binding and its absence hold for the method and conditions named. In cells and extracts the contact can be indirect. Sequences can lack the tags named with a protein.

Target: T1, SNX5-FLAG S226E, Q9Y5X3
T1 chain: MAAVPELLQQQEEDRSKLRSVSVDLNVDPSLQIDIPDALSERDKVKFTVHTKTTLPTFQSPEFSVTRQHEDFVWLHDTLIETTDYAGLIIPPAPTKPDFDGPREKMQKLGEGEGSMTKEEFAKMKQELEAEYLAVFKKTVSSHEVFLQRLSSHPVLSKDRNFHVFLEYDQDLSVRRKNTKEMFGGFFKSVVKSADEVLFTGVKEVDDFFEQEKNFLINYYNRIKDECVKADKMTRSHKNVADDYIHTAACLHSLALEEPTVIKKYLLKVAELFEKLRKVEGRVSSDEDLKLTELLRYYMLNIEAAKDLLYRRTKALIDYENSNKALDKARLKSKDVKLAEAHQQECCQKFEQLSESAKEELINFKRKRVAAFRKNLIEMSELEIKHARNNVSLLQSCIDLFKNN
Test: co-IP; FLAG pull-down: lysates of 8505C cells expressing SNX5-3xFLAG (48 h, adenovirus) in 0.5% NP-40, 50 mM Tris pH8.0, 150 mM NaCl, 1 mM Na3VO4, 10 mM NaF; anti-FLAG M2 beads 4 h at 4°C; eluted with FLAG-peptide; blots with anti-FLAG, anti-SNX1, anti-SNX2
Details: remark: other sources report otherwise

B1: SNX2 (endogenous in 8505C cells), O60749 1-519 (protein)
chain: MAAEREPPPLGDGKPTDFEDLEDGEDLFTSTVSTLESSPSSPEPASLPAEDISANSNGPKPTEVVLDDDREDLFAEATEEVSLDSPEREPILSSEPSPAVTPVTPTTLIAPRIESKSMSAPVIFDRSREEIEEEANGDIFDIEIGVSDPEKVGDGMNAYMAYRVTTKTSLSMFSKSEFSVKRRFSDFLGLHSKLASKYLHVGYIVPPAPEKSIVGMTKVKVGKEDSSSTEFVEKRRAALERYLQRTVKHPTLLQDPDLRQFLESSELPRAVNTQALSGAGILRMVNKAADAVNKMTIKMNESDAWFEEKQQQFENLDQQLRKLHVSVEALVCHRKELSANTAAFAKSAAMLGNSEDHTALSRALSQLAEVEEKIDQLHQEQAFADFYMFSELLSDYIRLIAAVKGVFDHRMKCWQKWEDAQITLLKKREAEAKMMVANKPDKIQQAKNEIREWEAKVQQGERDFEQISKTIRKEVGRFEKERVKDFKTVIIKYLESLVQTQQQLIKYWEAFLPEAKAIA
  binding: no binding
